Measured values reported in patent US7906486B2, “Method of treating or preventing tissue deterioration, injury or damage due to disease of mucosa” (SciClone Pharmaceuticals, Inc., priority 2007, dated 2011).
“And” between values parts separate entries of the source, which are not always exact repeats. Equal values may be shown once. The source gives many values for each of these; only a part stands here.

Assay: Weights and survival (Example 2, SCI-02)
Format: in vivo, Syrian Golden Hamsters
Protocol: All animals were weighed daily and their survival recorded, in order to assess possible differences in animal weight among treatment groups as an indication for mucositis severity and/or possible toxicity resulting from the treatments.
The mean daily percent weight change data was evaluated. The saline treated control hamsters gained an average of 44.1% of their starting weight during the study. Hamsters in the group receiving SCV-07 100 μg/kg once daily on days −1 to 20 gained an average of 49.9% of their starting weight during the study. Hamsters in the group receiving SCV-07 at 100 μg/kg twice daily on days −1 to 20 gained an average of 61.3% of their starting weight during the study. Hamsters in the group receiving SCV-07 at 1 mg/kg once daily on days −1 to 20 gained an average of 63.4% of their starting weight during the study. Hamsters in the group receiving SCV-07 at 1 mg/kg twice daily on days −1 to 20 gained an average of 69.1% of their starting weight during the study. The significance of these differences was evaluated by calculating the area-under-the-curve (AUC) for the weight gain of each animal, and then comparing the different treatment groups using a One-Way ANOVA test.

N[C@H](CCC(=O)N[C@@H](Cc1c[nH]c2ccccc12)C(=O)O)C(=O)O [SCV-07, γ-D-glutamyl-L-tryptophan]
Animal weight (Group 2, day 0): 87.6 and 87.2 and 81.6 and 71.9 and 86.2 and 81.9 and 82.7 and 80.4
Animal weight (Group 2, day 1): 86.5 and 80.5 and 81.7 and 72.8 and 85.7 and 82.6 and 83.4 and 81.2
Animal weight (Group 2, day 2): 92 and 86 and 75 and 91 and 88 and 90
Animal weight (Group 2, day 3): 96 and 94 and 86 and 77 and 93 and 87 and 91 and 88
Animal weight (Group 2, day 4): 98 and 97 and 87 and 79 and 94 and 90 and 93 and 89
Animal weight (Group 2, day 5): 102 and 99 and 88 and 79 and 95 and 90 and 92
Animal weight (Group 2, day 6): 105 and 101 and 90 and 85 and 98 and 92 and 97 and 93
Animal weight (Group 2, day 7): 107 and 103 and 90 and 84 and 97 and 94 and 99
Animal weight (Group 2, day 8): 108 and 105 and 94 and 85 and 99 and 100 and 98
Animal weight (Group 2, day 9): 114 and 111 and 95 and 88 and 101 and 105 and 98
Animal weight (Group 2, day 10): 117 and 110 and 97 and 91 and 105 and 100 and 106 and 103
Animal weight (Group 2, day 11): 109 and 103 and 90 and 88 and 98 and 95 and 101 and 99
Animal weight (Group 2, day 12): 120 and 114 and 98 and 97 and 109 and 104 and 107
Animal weight (Group 2, day 13): 118 and 110 and 95 and 97 and 104 and 102 and 106
Animal weight (Group 2, day 14): 124 and 116 and 98 and 101 and 110 and 106 and 111
Animal weight (Group 2, day 15): 123 and 116 and 99 and 98 and 110 and 102 and 111 and 113
Animal weight (Group 2, day 16): 130 and 121 and 104 and 108 and 115 and 105 and 118
Animal weight (Group 2, day 17): 122 and 117 and 98 and 101 and 109 and 100 and 111
Animal weight (Group 2, day 18): 123 and 110 and 107 and 100 and 108 and 98 and 95 and 114
Animal weight (Group 2, day 19): 130 and 124 and 105 and 108 and 115 and 109 and 119 and 120
Animal weight (Group 2, day 20): 124 and 117 and 98 and 102 and 108 and 103 and 111 and 114
Animal weight (Group 2, day 21): 124 and 117 and 98 and 102 and 107 and 103 and 110 and 114
Animal weight (Group 2, day 22): 135 and 134 and 100 and 112 and 115 and 110 and 120 and 121
Animal weight (Group 2, day 23): 142 and 130 and 108 and 120 and 122 and 118 and 128
Animal weight (Group 2, day 24): 135 and 124 and 102 and 112 and 116 and 110 and 121 and 126
Animal weight (Group 2, day 25): 142 and 131 and 108 and 120 and 117 and 119 and 128
Animal weight (Group 2, day 26): 137 and 127 and 116 and 104 and 118 and 115 and 129
Animal weight (Group 2, day 27): 136 and 125 and 101 and 114 and 110 and 113 and 124
Animal weight (Group 2, day 28): 142 and 131 and 107 and 120 and 121 and 117 and 118
Animal weight (Group 3, day 0): 77.1 and 75 and 86.6 and 80.2 and 81.7 and 82 and 80.8 and 83
Animal weight (Group 3, day 1): 77.1 and 75.8 and 86.1 and 79.1 and 81 and 80.3 and 80.8 and 80.7
Animal weight (Group 3, day 2): 80 and 82 and 93 and 86 and 87 and 88
Animal weight (Group 3, day 3): 83 and 81 and 94 and 89 and 90
Animal weight (Group 3, day 4): 79 and 81 and 92 and 84 and 85 and 89
Animal weight (Group 3, day 5): 84 and 82 and 98 and 86 and 89 and 93 and 94
Animal weight (Group 3, day 6): 91 and 85 and 102 and 93 and 92 and 101
Animal weight (Group 3, day 7): 91 and 85 and 105 and 95 and 94 and 100 and 102
Animal weight (Group 3, day 8): 85 and 81 and 99 and 89 and 87 and 88 and 93 and 95
Animal weight (Group 3, day 9): 98 and 90 and 113 and 100 and 99 and 107 and 110
Animal weight (Group 3, day 10): 100 and 92 and 115 and 103 and 102 and 107 and 113
Animal weight (Group 3, day 11): 99 and 91 and 117 and 102 and 100 and 108 and 113
Animal weight (Group 3, day 12): 101 and 92 and 120 and 104 and 115 and 118
Animal weight (Group 3, day 13): 97 and 88 and 116 and 101 and 99 and 100 and 108 and 117
Animal weight (Group 3, day 14): 103 and 94 and 121 and 105 and 106 and 113 and 120
Animal weight (Group 3, day 15): 104 and 94 and 127 and 106 and 105 and 114 and 121
Animal weight (Group 3, day 16): 107 and 98 and 134 and 113 and 109 and 110 and 119 and 126
Animal weight (Group 3, day 17): 108 and 100 and 133 and 110 and 106 and 112 and 119 and 128
Animal weight (Group 3, day 18): 111 and 101 and 138 and 115 and 109 and 114 and 123 and 130
Animal weight (Group 3, day 19): 111 and 102 and 136 and 112 and 109 and 114 and 123 and 131
Animal weight (Group 3, day 20): 114 and 105 and 140 and 110 and 118 and 126 and 133
Animal weight (Group 3, day 21): 117 and 108 and 141 and 116 and 112 and 118 and 129 and 137
Animal weight (Group 3, day 22): 110 and 105 and 136 and 112 and 120 and 127
Animal weight (Group 3, day 23): 122 and 110 and 145 and 117 and 114 and 134 and 140
Animal weight (Group 3, day 24): 115 and 112 and 147 and 119 and 120 and 124 and 136 and 142
Animal weight (Group 3, day 25): 126 and 114 and 150 and 121 and 116 and 124 and 137 and 143
Animal weight (Group 3, day 26): 122 and 111 and 145 and 119 and 114 and 135 and 142
Animal weight (Group 3, day 27): 129 and 117 and 153 and 123 and 119 and 141 and 147
Animal weight (Group 3, day 28): 127 and 117 and 151 and 120 and 118 and 126 and 139 and 146
Animal weight (Group 4, day 0): 85.2 and 88.7 and 83.4 and 72.4 and 72.3 and 90.6 and 75.9 and 84.8
Animal weight (Group 4, day 1): 84.3 and 89.4 and 84.9 and 75.7 and 75.8 and 94 and 77.5 and 86.4
Animal weight (Group 4, day 2): 86 and 94 and 77 and 96 and 79 and 91
Animal weight (Group 4, day 3): 89 and 98 and 90 and 79 and 78 and 99 and 82 and 95
Animal weight (Group 4, day 4): 93 and 100 and 92 and 81 and 83 and 101 and 84 and 99
Animal weight (Group 4, day 5): 92 and 101 and 93 and 81 and 82 and 104 and 85 and 98
Animal weight (Group 4, day 6): 98 and 104 and 97 and 85 and 87 and 109 and 89 and 103
Animal weight (Group 4, day 7): 98 and 107 and 97 and 85 and 91 and 111 and 104
Animal weight (Group 4, day 8): 100 and 108 and 98 and 86 and 91 and 109 and 102
Animal weight (Group 4, day 9): 106 and 113 and 102 and 90 and 99 and 115 and 98 and 109
Animal weight (Group 4, day 10): 105 and 114 and 103 and 92 and 99 and 116 and 111
Animal weight (Group 4, day 11): 107 and 116 and 105 and 93 and 102 and 115 and 100 and 111
Animal weight (Group 4, day 12): 109 and 119 and 105 and 94 and 103 and 117 and 116
Animal weight (Group 4, day 13): 108 and 118 and 105 and 94 and 104 and 103 and 116
Animal weight (Group 4, day 14): 110 and 121 and 108 and 93 and 105 and 120 and 118
Animal weight (Group 4, day 15): 107 and 120 and 105 and 91 and 106 and 116
Animal weight (Group 4, day 16): 113 and 126 and 111 and 93 and 110 and 125 and 112 and 122
Animal weight (Group 4, day 17): 114 and 127 and 94 and 126 and 112 and 123
Animal weight (Group 4, day 18): 116 and 125 and 115 and 96 and 111 and 120 and 114 and 124
Animal weight (Group 4, day 19): 116 and 130 and 115 and 95 and 129 and 122
Animal weight (Group 4, day 20): 120 and 133 and 118 and 98 and 119 and 131 and 117 and 124
Animal weight (Group 4, day 21): 119 and 136 and 122 and 99 and 121 and 133 and 118 and 128
Animal weight (Group 4, day 22): 113 and 136 and 114 and 99 and 112 and 124 and 119
Animal weight (Group 4, day 23): 123 and 139 and 126 and 104 and 125 and 134 and 120 and 130
Animal weight (Group 4, day 24): 126 and 142 and 127 and 103 and 135 and 123 and 131
Animal weight (Group 4, day 25): 126 and 142 and 129 and 105 and 138 and 127 and 133
Animal weight (Group 4, day 26): 126 and 144 and 130 and 105 and 138 and 127 and 131
Animal weight (Group 4, day 27): 129 and 145 and 132 and 107 and 130 and 138 and 128
Animal weight (Group 4, day 28): 133 and 147 and 135 and 111 and 134 and 139 and 131
Animal weight (Group 5, day 0): 90.1 and 76.5 and 87.5 and 81 and 74.7 and 79.8 and 77.3 and 80.1
Animal weight (Group 5, day 1): 87.6 and 77.3 and 89.6 and 82.8 and 74.2 and 81.8 and 76.6 and 78.8
Animal weight (Group 5, day 2): 89 and 78 and 91 and 84 and 83 and 81 and 75 and 80
Animal weight (Group 5, day 3): 93 and 79 and 95 and 89 and 87 and 85 and 83
Animal weight (Group 5, day 4): 94 and 81 and 98 and 96 and 90 and 87 and 86
Animal weight (Group 5, day 5): 98 and 81 and 93 and 85 and 90 and 88 and 86
Animal weight (Group 5, day 6): 106 and 83 and 105 and 101 and 87 and 94 and 90 and 95
Animal weight (Group 5, day 7): 106 and 86 and 100 and 88 and 96 and 92
Animal weight (Group 5, day 8): 107 and 87 and 109 and 101 and 91 and 98 and 94 and 97
Animal weight (Group 5, day 9): 112 and 90 and 114 and 106 and 95 and 104 and 97 and 99
Animal weight (Group 5, day 10): 113 and 91 and 116 and 107 and 97 and 104 and 99 and 102
Animal weight (Group 5, day 11): 113 and 90 and 118 and 107 and 98 and 105 and 99 and 100
Animal weight (Group 5, day 12): 117 and 92 and 122 and 110 and 99 and 109 and 102
Animal weight (Group 5, day 13): 118 and 93 and 119 and 113 and 99 and 108 and 103 and 102
Animal weight (Group 5, day 14): 119 and 117 and 95 and 122 and 100 and 112 and 106 and 104
Animal weight (Group 5, day 15): 118 and 99 and 120 and 114 and 112 and 107 and 104
Animal weight (Group 5, day 16): 125 and 103 and 127 and 120 and 105 and 115 and 112 and 108
Animal weight (Group 5, day 17): 125 and 104 and 127 and 122 and 118 and 113 and 107
Animal weight (Group 5, day 18): 128 and 106 and 129 and 125 and 120 and 115 and 109
Animal weight (Group 5, day 19): 131 and 106 and 130 and 124 and 107 and 121 and 115 and 111
Animal weight (Group 5, day 20): 130 and 107 and 127 and 109 and 121 and 117 and 111
Animal weight (Group 5, day 21): 136 and 109 and 133 and 132 and 111 and 124 and 120 and 114
Animal weight (Group 5, day 22): 134 and 113 and 133 and 131 and 110 and 124 and 120
Animal weight (Group 5, day 23): 137 and 115 and 136 and 129 and 125 and 117
Animal weight (Group 5, day 24): 135 and 113 and 112 and 129 and 127 and 116
Animal weight (Group 5, day 25): 142 and 120 and 141 and 140 and 118 and 132 and 131 and 121
Animal weight (Group 5, day 26): 145 and 117 and 141 and 120 and 133 and 132 and 123
Animal weight (Group 5, day 27): 148 and 121 and 144 and 124 and 137 and 133
Animal weight (Group 5, day 28): 150 and 123 and 147 and 126 and 139 and 137 and 125
